Laboratory results reported in article PMC4829432, “T-box3 is a ciliary protein and regulates stability of the Gli3 transcription factor to control digit number” (eLife, 2016).
No constants are given. Whether binding was seen depends on the method and setting. In cells and extracts the contact can be indirect. Some binding calls cover weakened binding; strength is not graded here. For some assays here: Sequences can lack the tags named with a protein.

By UniProt entry, the sequences of proteins in these tests, tags left out.
UniProt Q61602: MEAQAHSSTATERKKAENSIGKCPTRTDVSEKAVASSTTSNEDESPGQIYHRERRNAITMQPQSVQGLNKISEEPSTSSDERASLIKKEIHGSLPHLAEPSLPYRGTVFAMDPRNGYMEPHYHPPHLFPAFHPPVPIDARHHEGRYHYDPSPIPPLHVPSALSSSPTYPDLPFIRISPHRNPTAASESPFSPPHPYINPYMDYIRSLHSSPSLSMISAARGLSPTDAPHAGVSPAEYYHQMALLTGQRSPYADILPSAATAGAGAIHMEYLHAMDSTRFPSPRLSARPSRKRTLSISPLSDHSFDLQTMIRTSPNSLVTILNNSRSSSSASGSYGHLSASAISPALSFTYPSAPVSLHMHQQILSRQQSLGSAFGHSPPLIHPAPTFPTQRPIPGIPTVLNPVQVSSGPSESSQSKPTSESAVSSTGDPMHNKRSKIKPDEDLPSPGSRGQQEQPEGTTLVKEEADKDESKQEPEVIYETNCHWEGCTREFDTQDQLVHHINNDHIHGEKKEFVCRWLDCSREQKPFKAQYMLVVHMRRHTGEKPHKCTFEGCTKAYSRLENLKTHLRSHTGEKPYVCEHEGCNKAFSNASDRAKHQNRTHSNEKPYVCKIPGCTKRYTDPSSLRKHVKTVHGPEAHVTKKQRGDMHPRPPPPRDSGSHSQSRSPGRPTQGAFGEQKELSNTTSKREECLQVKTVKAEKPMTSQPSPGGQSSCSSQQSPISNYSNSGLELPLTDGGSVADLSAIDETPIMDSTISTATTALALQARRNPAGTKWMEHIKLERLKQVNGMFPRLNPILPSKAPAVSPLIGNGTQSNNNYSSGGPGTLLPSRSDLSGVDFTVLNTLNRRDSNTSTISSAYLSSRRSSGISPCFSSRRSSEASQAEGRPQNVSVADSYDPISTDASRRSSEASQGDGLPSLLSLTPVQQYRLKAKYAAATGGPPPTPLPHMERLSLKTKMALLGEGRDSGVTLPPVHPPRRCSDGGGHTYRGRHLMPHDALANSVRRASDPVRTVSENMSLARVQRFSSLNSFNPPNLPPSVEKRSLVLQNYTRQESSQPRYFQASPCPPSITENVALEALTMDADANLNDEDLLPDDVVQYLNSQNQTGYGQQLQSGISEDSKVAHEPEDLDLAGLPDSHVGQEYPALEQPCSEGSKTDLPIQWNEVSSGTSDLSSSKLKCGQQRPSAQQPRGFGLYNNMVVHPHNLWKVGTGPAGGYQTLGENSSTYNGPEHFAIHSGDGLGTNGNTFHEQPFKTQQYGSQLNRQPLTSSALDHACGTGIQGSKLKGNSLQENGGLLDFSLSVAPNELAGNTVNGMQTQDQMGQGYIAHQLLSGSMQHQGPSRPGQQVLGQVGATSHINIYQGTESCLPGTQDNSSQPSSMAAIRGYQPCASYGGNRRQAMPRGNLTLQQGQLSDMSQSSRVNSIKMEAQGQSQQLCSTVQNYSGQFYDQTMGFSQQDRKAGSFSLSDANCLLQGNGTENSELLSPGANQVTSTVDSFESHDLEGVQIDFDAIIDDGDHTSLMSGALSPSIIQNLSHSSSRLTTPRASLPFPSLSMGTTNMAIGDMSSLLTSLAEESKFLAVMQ

Experiments:
[1] = target: Gli3, endogenous mouse protein as precipitated by anti-Gli3 (Gli3FL and Gli3R not told apart) (mouse (endogenous in E10.5 embryos)) (UniProt Q61602); experiment: co-IP; as a4, but lysates of Tbx3 null (Tbx3 delta-fl/delta-fl, ko) E10.5 embryos; Kif7-Gli3 co-precipitate compared with control (wt) embryos by densitometry
[2] = target: T1, Suppressor of fused (Sufu), endogenous mouse protein (mouse (endogenous in E10.5 embryos)) (UniProt Q9Z0P7); experiment: co-IP; endogenous proteins; E10.5 whole mouse embryo lysates in Dignam buffer C, control (wt) embryos; Sufu-Gli3, Sufu-Kif7 and Tbx3-Spop also assayed in Tbx3 null (Tbx3 delta-fl/delta-fl, ko) embryos, where less Sufu-Gli3 and Sufu-Kif7 co-precipitated; 5-10 ug antibody overnight at 4 C, Protein-G Dynal beads, immunoblot, densitometry
T1 sequence: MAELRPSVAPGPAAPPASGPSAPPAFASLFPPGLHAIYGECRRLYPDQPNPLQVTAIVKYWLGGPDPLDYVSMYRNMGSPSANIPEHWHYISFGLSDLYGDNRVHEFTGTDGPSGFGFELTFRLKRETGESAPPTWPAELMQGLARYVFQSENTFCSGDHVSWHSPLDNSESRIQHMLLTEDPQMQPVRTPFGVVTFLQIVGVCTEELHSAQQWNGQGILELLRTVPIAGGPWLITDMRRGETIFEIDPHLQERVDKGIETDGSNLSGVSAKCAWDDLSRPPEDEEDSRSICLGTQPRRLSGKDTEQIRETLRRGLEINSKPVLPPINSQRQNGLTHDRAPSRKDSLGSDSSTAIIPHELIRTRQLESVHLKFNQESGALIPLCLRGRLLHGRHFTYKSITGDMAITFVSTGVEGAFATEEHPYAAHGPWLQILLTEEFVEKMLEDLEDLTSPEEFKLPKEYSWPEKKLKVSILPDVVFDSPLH

binding [1]: binds
binding [2]: binds
B1: Kif7, endogenous mouse protein (natural protein, mouse (endogenous in E10.5 embryos), UniProt B7ZNG0 1-1348, looked up)
chain: MGLEAQRLPGAEEAPVRVALRVRPLLPKELLHGHQSCLRVEPERGRITLGRDRHFGFHVVLGEDTGQEAVYQACVQPLLEAFFEGFNATVFAYGQTGSGKTYTMGEASVASLHEDEQGIIPRAMAEAFKLIDENDLLDCLVHVSYLELYKEEFRDLLEVGTASRDIQLREDDRGNVVLCGVKEVDVEGLDEVLSLLEMGNAARHTGATHFNRLSSRSHTVFTVTLEQRGRTPSRLPRPAAGHLLVSKFHFVDLAGSERVLKTGSTGERLKESIQINSTLLALGNVISALGDPQRRGSHIPYRDSKITRILKDSLGGNAKTVMIACVSPSSSDFDETLNTLNYASRAQNIRNRATVNWHPEAERVPEEQAAGARGPPRHRSETRIIHRGRRVPCPAVGSAAVAAGLGAECARCRARTSAAYSLLRELQAEPGLPGAAARKVRDWLCAVEGERSTLSSASGPDSGIESAPAEDQAAQGTSGRKGDEGTQQLLTLQSQVARLEEENRDFLAALEDAMEQYKLQSDRLREQQEEMVELRLRLELAQPGWGAPGLLQGLPPGSFVPRPHTAPLGGAHTHMLGMMPSTCLPGEEVSSEQQVVSGKEVKAEVLAQADKLRSASSTTSEEEGEEEEEEEEEEEEPPRRTLYLRRNGISNWSQRAGLSPGSPPDRKGPEVCPEEPAAAIPAPQAVGSGKVPVQTRQAPAAMASEWRLAQAQQKIRELAINIRMKEELIGELVRTGKAAQALNRQHSQRIRELEQEAERVRAELCEGQRQLRELEGREPQDASERSRLQEFRKRVAAAQSQVQVLKEKKQATERLVSLSAQSETRLQELERNVQLMRRQQGQLQRRLREETEQKRRLETEMNKRQHRVKELELKHEQQQKILKIKTEEIAAFQRKRRSGSNGSVVSLEQQQKIEEQKKWLDQEMEKVLQQRRALEELGEELRKREVILAKKEALMQEKTGLESKRLRSSQALNEDIVRVSSRLEHLEKELSEKSGQLRQGSAQNQQQIRGEIDTLRQEKDSLLKQRLEIDSKLRQGSLLSPEEERTLFQLDEAIEALDAAIEYKNEAITCRQRVLRASASLLSQCEMNLMAKLSYLSSSETRALLCKYFDKVVTLREEQHQQQIAFSELEMQLEEQQRLVYWLEVALERQRLEMDRQLTLQQKEHEQNVQLLLQQGRDHLGEGLADSKRQYEARIHALEKELGRHMWINQELKQKLSAGSTAGQSQGCERRSLCLENRQCLGNEDGLHPAAPEPLWQSSLLEGVSRVWDESRDLVHAPLPLTWKRSSLCSEQGSSEESRVRETTEPPVGRVLPMGEVGLSWNFGPLPKPRWEPRRTSPGMIDVRKNPL
notes: Kif7, ciliary kinesin family protein, mouse, endogenous in E10.5 forelimb buds and whole embryos; source: endogenous, E10.5 mouse forelimb bud lysate or E10.5 whole embryo lysate (control or Tbx3 null)
